No constants are given. Whether binding was seen depends on the method and setting. For some assays here: Binding calls can cover weak binding; strength is not graded here.
What was measured:
[1] = target: llama/human-IPT chimeric c-Met ECD (Llama glama; human); assay: ELISA, 200 ng immobilised c-Met protein, mAb titrated
[2] = target: llama/human-IPT chimeric c-Met ECD (Llama glama; human); assay: ELISA on chimeric c-Met ECD
[3] = target: LS5 (aa1-448) (Llama glama; human); assay: SPR, mAb on CM-5 chip, 10 µg/ml c-Met chimera injected
[4] = target: LS4 (aa1-348) (Llama glama; human); assay: as above
[5] = target: LS3 (aa1-287) (Llama glama; human); assay: as above
[6] = target: LS2 (aa1-199) (Llama glama; human); assay: as above
[7] = target: Ll11 (aa634-909) (human; Llama glama); assay: as above
[8] = target: LP6 (aa497-909) (human; Llama glama); assay: SPR, mAb on CM-5 chip, c-Met chimera injected
[9] = target: LP6 (aa497-909) (human; Llama glama); assay: ELISA, mAb immobilised, c-Met chimera added, streptavidin-HRP
[10] = target: Ll8 (aa540-909) (human; Llama glama); assay: SPR, mAb on CM-5 chip, 10 µg/ml c-Met chimera injected
[11] = target: Ll9 (aa572-909) (human; Llama glama); assay: as above
[12] = target: LP6 (aa497-909) (human; Llama glama); assay: as above
[13] = target: Ll10 (aa608-909) (human; Llama glama); assay: as above

binding [1] | binding [2] | binding [3] | binding [4] | binding [5] | binding [6] | binding [7] | binding [8] | binding [9] | binding [10] | binding [11] | binding [12] | binding [13] | Binder
binds | binds |  |  |  |  |  |  |  |  |  |  |  | 13E6 (antibody, V domains shown, also called mAb 13E6) VH: QVQLQESGGDLVQPGGSLRLSCAASGFTFDDYVMNWVRQAPGKGLEWISAINWNGGSTYYAESMKGRFTISRDNAKNTLYLQMYSLQSDDTAVYYCVKDTVVSGNGYWGQGTQVTVSS VL: QSVLTQPPSVSGTLGKTVTISCAGTSSDIGDYNYVSWYQQLPGTAPKLLIYDVNKRASGIPDRFSGSKSGNTASLSISGLQSEDEADYYCASYRSRNDYAFGGGTKLTVL
 |  | binds | binds | binds | binds | binds | no binding (tested: 10 µg/ml chimera) | no binding |  |  |  |  | 48A2 (antibody, V domains shown) VH: EVQLVQPGVELRNPGASVKVSCKASGYIFTMNSIDWVRQAPGQGLEWMGRIDPEDGGTKYAQKFQGRVTFTADTSTSTAYVELNSLRSEDTAVYYCARVDDYYLGYDYWGQGTQVTVSS VL: DIVMTQTPTSVTASAGDKVTINCKSSQSVLFSSNQKNYLAWYQQRLGQSPRLLIYWASIRESGVPDRFSGSGSATDFTLTISNFQPEDAAVYYCQQGYSFPYSFGSGTRLEIR
 |  |  |  |  |  | binds |  |  | binds | binds | binds | binds | 36C4 (antibody, V domains shown, also called mAb 36C4; SIMPLE antibody 36C4) VH: QVQLVESGPGLVKPSQTLSLTCAVSGGSITTNYYYWSWIRQSPGKGLEWMGVIAYDGSTDYSPSLKSRTSISRDTSKNQFSLQLSSVTPEDTAVYYCARDVRVIATGWATANALDAWGQGTLVTVSS VL: QSVLTQPPSVSGSPGKTVTISCAGTSSDVGYGNYVSWYQQLPGTAPKLLIFAVSYRASGIPDRFSGSKSGNTAFLTISGLQSEDEADYYCASYRSSNNAAVFGGGTHLTVL
